For data set [1], the target named is POU2F2 (endogenous, Hep1-6 nuclear extract) (Mus musculus (Hep1-6)) (UniProt Q00196). Briefly: competition with a labelled probe. Particulars: mutant as competitor against N3; LightShift Chemiluminescent EMSA Kit; antibody preincubated with nuclear extract on ice 10 min before probe; pH and binding temperature not given; protein in an extract; label: 3' biotin as probe.

Amino acid sequences for entries named in this document (tags omitted). A change or cut given only in a name is not applied to a line headed by its entry.
UniProt Q00196: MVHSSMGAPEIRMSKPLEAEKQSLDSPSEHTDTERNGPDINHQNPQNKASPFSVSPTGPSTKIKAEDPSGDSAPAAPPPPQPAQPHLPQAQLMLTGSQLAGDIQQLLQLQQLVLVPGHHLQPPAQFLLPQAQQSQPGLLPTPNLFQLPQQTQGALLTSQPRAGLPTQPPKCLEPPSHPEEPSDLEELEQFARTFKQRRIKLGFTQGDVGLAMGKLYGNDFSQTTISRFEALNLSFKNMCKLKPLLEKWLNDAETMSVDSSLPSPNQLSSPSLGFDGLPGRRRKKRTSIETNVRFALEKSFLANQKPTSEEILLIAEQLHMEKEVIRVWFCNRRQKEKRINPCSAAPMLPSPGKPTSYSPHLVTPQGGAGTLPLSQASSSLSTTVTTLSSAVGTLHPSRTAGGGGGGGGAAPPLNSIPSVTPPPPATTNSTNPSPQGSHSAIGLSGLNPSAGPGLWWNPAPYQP

Data set [2] shares this target. Briefly: EMSA. Conditions: mutant probe as labeled probe; LightShift Chemiluminescent EMSA Kit; antibody preincubated with nuclear extract on ice 10 min before probe; pH and binding temperature not given; protein in an extract; label: 3' biotin as probe.
For data set [3], the target named is POU2F2 (endogenous, Huh7 nuclear extract) (Homo sapiens (Huh7)) (UniProt P09086). Briefly: EMSA, supershift. Particulars: anti-POU2F2 supershift, abolished by unlabeled probe; LightShift Chemiluminescent EMSA Kit; antibody preincubated with nuclear extract on ice 10 min before probe; pH and binding temperature not given; protein in an extract; label: 3' biotin.

Data set [4] concerns the target T1, HIS-POU2F2 (Homo sapiens) (UniProt P09086).
T1 sequence (looked up, limits assumed): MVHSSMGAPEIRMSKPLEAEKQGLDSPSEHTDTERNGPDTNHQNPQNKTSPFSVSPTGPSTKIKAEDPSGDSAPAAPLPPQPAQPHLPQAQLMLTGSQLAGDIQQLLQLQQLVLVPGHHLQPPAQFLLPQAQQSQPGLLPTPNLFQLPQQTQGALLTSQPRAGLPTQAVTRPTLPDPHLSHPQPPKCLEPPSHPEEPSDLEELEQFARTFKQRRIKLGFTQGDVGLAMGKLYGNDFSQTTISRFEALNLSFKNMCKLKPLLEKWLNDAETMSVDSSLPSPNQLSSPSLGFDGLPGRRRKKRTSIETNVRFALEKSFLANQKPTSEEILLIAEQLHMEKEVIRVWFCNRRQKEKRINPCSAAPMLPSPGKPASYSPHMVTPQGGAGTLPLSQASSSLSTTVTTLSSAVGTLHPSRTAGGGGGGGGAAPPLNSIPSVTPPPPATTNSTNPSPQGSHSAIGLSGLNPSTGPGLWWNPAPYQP
Briefly: EMSA, supershift. Particulars: anti-POU2F2 supershift, increasing HIS-POU2F2 displaces fixed GST-p53 (Fig S5H); LightShift Chemiluminescent EMSA Kit; antibody preincubated with nuclear extract on ice 10 min before probe; pH and binding temperature not given; recombinant protein; protein details: N-terminal His; label: 3' biotin.

The next data set addresses GST-p53 (Homo sapiens) (UniProt P04637). Briefly: EMSA, supershift. Conditions: anti-p53 supershift, binding lost with increasing HIS-POU2F2 (Fig S5H); LightShift Chemiluminescent EMSA Kit; antibody preincubated with nuclear extract on ice 10 min before probe; pH and binding temperature not given; recombinant protein; residues 1-393; protein details: GST; label: 3' biotin.

The next data set deals with GST tag. Briefly: EMSA. Conditions: LightShift Chemiluminescent EMSA Kit; antibody preincubated with nuclear extract on ice 10 min before probe; pH and binding temperature not given; recombinant protein; protein details: GST; label: 3' biotin.
For data set [5], the target named is POU2F2 (endogenous, Hep1-6 nuclear extract) (Mus musculus (Hep1-6)) (UniProt Q00196). Briefly: EMSA, supershift. Particulars: anti-POU2F2 supershift, abolished by unlabeled probe; LightShift Chemiluminescent EMSA Kit; antibody preincubated with nuclear extract on ice 10 min before probe; pH and binding temperature not given; protein in an extract; label: 3' biotin.

Data set [6] has as its target POU2F2 (endogenous, Huh7 nuclear extract) (Homo sapiens (Huh7)) (UniProt P09086). Briefly: competition with a labelled probe. Particulars: mutant as competitor against N1; LightShift Chemiluminescent EMSA Kit; antibody preincubated with nuclear extract on ice 10 min before probe; pH and binding temperature not given; protein in an extract; label: 3' biotin as probe.
Data set [7] shares this target. Briefly: EMSA. Particulars: mutant probe as labeled probe; LightShift Chemiluminescent EMSA Kit; antibody preincubated with nuclear extract on ice 10 min before probe; pH and binding temperature not given; protein in an extract; label: 3' biotin as probe.

For at least one entry, the source does not settle the construct or the ends of the probe. For part of these data: No signal at the amounts used counts as a negative. For part of these data: At least one result comes from cells or an extract, where the contact may be indirect. For part of these data: Tags and fusion partners may be left off the protein sequences shown.

With “GGGTAATTGTACAGCTTC (double strand) [mouse Nanog mutant probe]”, the binding result in data set [1] and in data set [2] was “no binding” throughout. In the case of “TCCCCACCTAGTCTGGGTTACTC (double strand) [human NANOG -150 to -128 probe]”, the binding result in data set [3] is given as “binds”. For “GTTTTCTAGTTCCCCACCTAGTCTGGGTTACTC (double strand) [human NANOG site-p53/CACCT probe]”, the binding result is “binds” in data set [4], “binds” with GST-p53 (Homo sapiens) and “no binding” in the data set with GST tag. Regarding “GGGTCACCTTACAGCTTC (double strand) [mouse Nanog -198 to -181 probe]”, the binding result in [5] is “binds”. Regarding “TCCCAATTGAGTCTGGGTTACTC (double strand) [human NANOG mutant probe]”, the binding result in [6] and in data set [7] was “no binding” in each case.

The record behind these values is PMC10619474.
